Where a chain is given by its changes, count along the chain named. These are yes or no findings as the source states them, for the method shown. Binding seen in cells or lysates may run through a third protein. For some of these results: Binding calls can cover weak binding; strength is not graded here. Sequences can lack the tags named with a protein.
Legend:
[1] = biological target: T1, GST-Abp1 SH3 domain fusion protein (Drosophila melanogaster) (UniProt Q9VU84); assay: pull-down; immobilized, purified, recombinant GST fusion proteins incubated with fly head extracts (10 mM HEPES pH 7.4, 1 mM EGTA, 0.1 mM MgCl2, 150 mM NaCl, protease inhibitor, 1% Triton X-100; 16,000xg supernatant); immunoblot for WASP and Scar; only the target purified
T1 sequence: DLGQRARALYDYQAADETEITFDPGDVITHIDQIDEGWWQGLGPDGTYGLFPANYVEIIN

[2] = biological target: T2, GST-Abp1 SH3 P523A (Drosophila melanogaster) (UniProt Q9VU84); assay: as above
T2 sequence: T1 sequence with P52A

binding [1] | binding [2] | Substance
binds | no binding | Scar
binds | no binding | WASP

Source: PMC4026379
